According to patent publication EP0186365A2, “Preparation of alcohols” (UNITED KINGDOM ATOMIC ENERGY AUTHORITY, priority 1984, dated 1986):
Some entries share one result that the patent states for a list of compounds.

Protein sequences, listed by entry. Tags and fused reporters are not part of them. Lines headed by an entry give the natural chain unless they say otherwise; changes in a name come on top.
UniProt P00327: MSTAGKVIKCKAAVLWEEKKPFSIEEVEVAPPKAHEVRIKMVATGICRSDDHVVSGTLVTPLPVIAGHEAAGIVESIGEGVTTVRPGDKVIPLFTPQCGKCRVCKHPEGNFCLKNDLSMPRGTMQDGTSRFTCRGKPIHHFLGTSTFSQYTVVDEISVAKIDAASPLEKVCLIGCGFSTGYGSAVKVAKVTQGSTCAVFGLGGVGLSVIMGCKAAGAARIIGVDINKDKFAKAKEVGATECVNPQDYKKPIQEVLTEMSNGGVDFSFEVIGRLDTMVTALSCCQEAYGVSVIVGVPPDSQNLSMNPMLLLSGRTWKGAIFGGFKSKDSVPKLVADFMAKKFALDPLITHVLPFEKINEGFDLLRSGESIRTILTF

Key:
immobilised HLADH = target: T1, immobilised HLADH (Equus caballus, UniProt P00327); assay: Example 5: inhibition of immobilised HLADH by aldehydes; assay type: biochemical, horse; conditions: (a) immobilised HLADH; assay with trans-cinnamaldehyde after pre-incubation with the aldehyde
T1 construct: whether it is derived from yeast (i.e. is a YADH) from horse liver (HLADH), or from another source; from tissue; host or cells: horse liver
Procedure: In order to test the inhibition of the immobilised enzyme by aldehyde, the beads (50 - 60 µl) were incubated with trans-cinnamaldehyde ([…]; 10 mM) and a coupling buffer (3.95 ml; pH 7.0). This gave a final aldehyde concentration of 2 mM and a protein concentration of 0.16 mg/ml. The reaction mixture was incubated at 22 (+2)°C for 60 min with continuous gentle agitation. The immobilised enzyme was washed three times in coupling buffer (10 ml) at 22 (+2)C and resuspended in eight times of its original volume in coupling buffer. Enzyme activity was assayed immediately after washing using trans-cinnamaldehyde (5 mM) as assay substrate with a protein concentration of 0.2 mg/ml.
Horse liver alcohol dehydrogenase or HLADH (50 mg; 1 U/mg) was reacted with swelled CNBr-activated Sepharose 4B (Registered Trade Mark) beads (0.8 g). Approximately 90% of the enzyme was thus immobilised.
The inhibition of the immobilised enzyme (prepared as in Example 4) by aldehydes was tested and compared with the soluble enzyme as described in Example 3. The results were as follows:
(a) assaying using trans-cinnamaldehyde following pre-incubation using a different aldehyde
(b) assaying using the aldehyde used in pre-incubation

YADH = target: T2, YADH (Saccharomyces cerevisiae, UniProt P00330); assay: Inhibition/inactivation of YADH in solution by incubation with aldehyde; assay type: biochemical, yeast
T2 sequence (P00330 1-348): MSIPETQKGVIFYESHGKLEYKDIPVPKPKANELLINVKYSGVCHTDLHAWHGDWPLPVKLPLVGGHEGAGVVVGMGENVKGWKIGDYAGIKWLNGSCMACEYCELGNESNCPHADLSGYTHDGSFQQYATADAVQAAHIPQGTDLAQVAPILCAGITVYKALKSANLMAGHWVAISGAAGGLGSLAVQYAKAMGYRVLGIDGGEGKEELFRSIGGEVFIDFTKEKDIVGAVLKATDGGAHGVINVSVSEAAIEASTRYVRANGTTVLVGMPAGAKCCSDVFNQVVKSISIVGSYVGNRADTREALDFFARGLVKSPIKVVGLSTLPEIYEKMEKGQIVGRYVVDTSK
From the text: The enzymatic reduction of aldehydes may, however, present a serious problem due to the aldehyde, whilst being a substrate for the enzyme, being a potent irreversible inhibitor.

SMILES | inhibition (immobilised HLADH) | irreversible inhibition of YADH (YADH)
CC(C)=CCCC(C)=CC=O [citral] | total protection against inhibition | –
Cc1ccccc1C=O [o tolualdehyde] | – | irreversible inhibition
O=Cc1ccccc1O [salicylaldehyde] | total protection against inhibition | irreversible inhibition
